Source: patent US20200129495A1 (BioPharmX, Inc., priority 2018, published 2020)
Read-outs that look alike come from different tables or passages of the source.

Experiments:
[1] = Excerpt: Addition of the solvent was repeated until the test material was completely dissolved, resulting in a visually clear solution.
male C57BL/6J mice = settings: 2% (w/w) ebastine in ethanol/propylene glycol, topical 2.5 mg/cm^2 daily, 5 weeks; shaved patch
in vivo [2] = settings: mouse, skin, topical, 2.5 mg/cm^2
in vivo [3] = settings: mouse, plasma, topical, 2.5 mg/cm^2

## CC(C)(C)c1ccc(C(=O)CCCN2CCC(OC(c3ccccc3)c3ccccc3)CC2)cc1 [Ebastine, 1-[4-(1,1-dimethylethyl)phenyl]-4-[4-(diphenylmethoxy)-1-piperidinyl]-1-butanone]
[1]; Diisopropyl Adipate
  EBASTINE SOLUBILITY AT ROOM TEMP: 28.7 mg/g
[1]; Isopropyl Myristate
  EBASTINE SOLUBILITY AT ROOM TEMP: 21.8 mg/g
Male C57BL/6J mice
  hair length compared with baseline (non-patch area of non-treated mice): increased hair length
In vivo [2]
  concentration at 5 weeks: 40400 ng/g
In vivo [3]
  concentration at 5 weeks: 2.18 ng/mL
